{
  "source": "patent US20120225777A1",
  "about": "“Azolylmethyloxiranes, Their Use for Controlling Phytopathogenic Fungi and Compositions Comprising Them” (BASF SE, priority 2006, published 2012)",
  "key": {"Puccinia recondite": {"tested_on": "Puccinia recondite", "assay": "Protective activity against Puccinia recondite on wheat (brown rust of wheat) (Puccrt P1), greenhouse", "format": "in vivo", "conditions": "63 ppm active compound, sprayed 1 day before inoculation, wheat seedlings; untreated plants 90% infected"}, "Sphaerotheca fuliginea": {"tested_on": "Sphaerotheca fuliginea", "assay": "Activity against mildew on cucumber leaves caused by Sphaerotheca fuliginea, protective application (Sphrfu P1), greenhouse", "format": "in vivo", "conditions": "Use Example 2, 63 ppm active compound, cucumber seedlings, 7 days, untreated plants 90% infected", "description": "The active compounds were prepared separately or jointly as a stock solution comprising 25 mg of active compound which was made up to 10 ml using a mixture of acetone and/or DMSO and the emulsifier Wettol EM 31 (wetting agent having emulsifying and dispersing action based on ethoxylated alkylphenols) in a volume ratio of solvent/emulsifier of 99:1. The mixture was then made up to 100 ml with water. This stock solution was diluted with the solvent/emulsifier/water mixture described to give the concentration of active compounds stated below.\nLeaves of potted cucumber seedlings were, at the cotyledon stage, sprayed to runoff point with an aqueous suspension having the active compound concentration stated below. 20 hours after the spray coating had dried on, the plants were inoculated with an aqueous spore suspension of mildew of cucumber (Sphaerotheca fuliginea). The plants were then cultivated in a greenhouse at temperatures between 20 and 24° C. and 60 to 80% relative atmospheric humidity for 7 days. The extent of the mildew development was then determined visually in % infection of the cotyledon area."}},
  "note": "Some of these results come from one statement about several compounds together.",
  "data": [
    {"smiles": "Fc1cc(F)c([C@@]2(Cn3cncn3)O[C@@H]2c2ccccc2Cl)cc1F", "note": "(racemic) [Compound 8.6]", "values": [
      {"measurement": "infection (extent of rust fungus development on the leaves)", "setting": "Puccinia recondite", "value": "at most 10%"},
      {"measurement": "infection of the cotyledon area (mildew development)", "setting": "Sphaerotheca fuliginea", "value": "at most 7%"}
    ]},
    {"smiles": "Cc1ccccc1[C@H]1O[C@]1(Cn1cncn1)c1cc(F)c(F)cc1F", "note": "(racemic) [Compound 8.7]", "values": [
      {"measurement": "infection (extent of rust fungus development on the leaves)", "setting": "Puccinia recondite", "value": "at most 10%"},
      {"measurement": "infection of the cotyledon area (mildew development)", "setting": "Sphaerotheca fuliginea", "value": "at most 7%"}
    ]},
    {"smiles": "Fc1ccc(C2OC2(Cn2cncn2)c2cc(F)c(F)cc2F)cc1", "note": "(centres unmarked) [Compound 8.5]", "values": [
      {"measurement": "infection (extent of rust fungus development on the leaves)", "setting": "Puccinia recondite", "value": "at most 10%"}
    ]}
  ]
}
